Assay results as given in the supplement of paper PMC12819154, “High-throughput peptide-centric local stability assay extends protein–ligand identification to membrane proteins, tissues and bacteria” (Nature Structural & Molecular Biology, 2025).
This is one part of the list. Small differences around the control level are noise.

Amino acid sequences for entries named in this document (tags omitted). A change or cut given only in a name is not applied to a line headed by its entry.
UniProt P42227, whole entry: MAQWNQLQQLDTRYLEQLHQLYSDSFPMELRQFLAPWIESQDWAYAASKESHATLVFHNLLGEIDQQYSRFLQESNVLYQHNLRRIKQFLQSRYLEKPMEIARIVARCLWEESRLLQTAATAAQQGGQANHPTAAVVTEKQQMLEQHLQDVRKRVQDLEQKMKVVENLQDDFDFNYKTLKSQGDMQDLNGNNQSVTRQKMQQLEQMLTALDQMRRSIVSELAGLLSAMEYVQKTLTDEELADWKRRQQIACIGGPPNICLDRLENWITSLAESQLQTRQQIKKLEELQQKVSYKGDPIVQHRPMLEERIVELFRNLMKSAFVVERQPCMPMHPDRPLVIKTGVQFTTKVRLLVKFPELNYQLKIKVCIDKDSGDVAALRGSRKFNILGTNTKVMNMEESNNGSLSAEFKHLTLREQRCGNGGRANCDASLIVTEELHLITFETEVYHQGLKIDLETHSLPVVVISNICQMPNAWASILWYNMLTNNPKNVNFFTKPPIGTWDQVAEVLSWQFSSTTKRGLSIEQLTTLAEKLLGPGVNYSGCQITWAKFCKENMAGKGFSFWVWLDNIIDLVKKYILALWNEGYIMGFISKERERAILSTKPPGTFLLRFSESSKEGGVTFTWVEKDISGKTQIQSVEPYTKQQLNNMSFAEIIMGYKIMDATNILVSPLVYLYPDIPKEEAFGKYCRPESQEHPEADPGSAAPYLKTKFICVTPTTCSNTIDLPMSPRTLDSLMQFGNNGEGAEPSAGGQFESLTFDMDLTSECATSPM
UniProt P35991: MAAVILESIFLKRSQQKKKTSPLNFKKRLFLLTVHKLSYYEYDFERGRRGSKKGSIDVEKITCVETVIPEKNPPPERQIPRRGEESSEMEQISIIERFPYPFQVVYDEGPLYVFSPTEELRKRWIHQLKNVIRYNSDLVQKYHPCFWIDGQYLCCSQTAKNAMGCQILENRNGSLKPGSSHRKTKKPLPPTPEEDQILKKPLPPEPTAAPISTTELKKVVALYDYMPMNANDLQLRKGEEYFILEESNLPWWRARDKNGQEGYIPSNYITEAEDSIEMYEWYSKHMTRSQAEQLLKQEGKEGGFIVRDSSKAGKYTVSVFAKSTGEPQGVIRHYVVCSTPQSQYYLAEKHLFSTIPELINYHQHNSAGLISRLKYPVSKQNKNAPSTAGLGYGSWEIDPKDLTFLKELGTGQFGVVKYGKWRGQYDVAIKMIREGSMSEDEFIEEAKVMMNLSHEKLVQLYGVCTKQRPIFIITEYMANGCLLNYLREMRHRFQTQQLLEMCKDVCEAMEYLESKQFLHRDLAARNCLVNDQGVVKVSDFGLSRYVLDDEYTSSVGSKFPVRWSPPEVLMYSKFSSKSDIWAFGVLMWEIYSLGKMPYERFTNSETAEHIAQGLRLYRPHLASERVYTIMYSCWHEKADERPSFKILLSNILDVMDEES
UniProt P39038: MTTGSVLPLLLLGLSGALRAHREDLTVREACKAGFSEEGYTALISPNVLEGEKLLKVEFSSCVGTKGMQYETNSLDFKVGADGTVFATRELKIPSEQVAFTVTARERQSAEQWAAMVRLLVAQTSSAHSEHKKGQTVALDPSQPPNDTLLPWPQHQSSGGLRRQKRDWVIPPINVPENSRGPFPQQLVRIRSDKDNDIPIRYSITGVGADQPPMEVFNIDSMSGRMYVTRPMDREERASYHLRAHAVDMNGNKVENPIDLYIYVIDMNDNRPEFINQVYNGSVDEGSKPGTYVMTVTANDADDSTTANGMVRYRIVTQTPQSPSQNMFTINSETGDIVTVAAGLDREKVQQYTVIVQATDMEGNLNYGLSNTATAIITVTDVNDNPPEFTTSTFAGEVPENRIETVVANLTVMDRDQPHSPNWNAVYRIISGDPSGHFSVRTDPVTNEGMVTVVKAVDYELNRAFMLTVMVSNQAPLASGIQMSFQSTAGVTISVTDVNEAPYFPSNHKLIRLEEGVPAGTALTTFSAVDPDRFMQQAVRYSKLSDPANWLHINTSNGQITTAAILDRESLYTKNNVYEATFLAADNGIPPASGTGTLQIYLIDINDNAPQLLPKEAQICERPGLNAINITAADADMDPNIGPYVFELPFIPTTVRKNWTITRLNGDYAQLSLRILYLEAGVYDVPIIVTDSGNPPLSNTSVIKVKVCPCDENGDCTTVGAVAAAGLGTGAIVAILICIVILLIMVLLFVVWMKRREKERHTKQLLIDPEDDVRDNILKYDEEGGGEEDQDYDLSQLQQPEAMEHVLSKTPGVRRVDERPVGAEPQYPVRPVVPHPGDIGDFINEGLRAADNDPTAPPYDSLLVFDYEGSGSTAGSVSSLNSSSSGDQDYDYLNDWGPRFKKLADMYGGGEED
UniProt P46978: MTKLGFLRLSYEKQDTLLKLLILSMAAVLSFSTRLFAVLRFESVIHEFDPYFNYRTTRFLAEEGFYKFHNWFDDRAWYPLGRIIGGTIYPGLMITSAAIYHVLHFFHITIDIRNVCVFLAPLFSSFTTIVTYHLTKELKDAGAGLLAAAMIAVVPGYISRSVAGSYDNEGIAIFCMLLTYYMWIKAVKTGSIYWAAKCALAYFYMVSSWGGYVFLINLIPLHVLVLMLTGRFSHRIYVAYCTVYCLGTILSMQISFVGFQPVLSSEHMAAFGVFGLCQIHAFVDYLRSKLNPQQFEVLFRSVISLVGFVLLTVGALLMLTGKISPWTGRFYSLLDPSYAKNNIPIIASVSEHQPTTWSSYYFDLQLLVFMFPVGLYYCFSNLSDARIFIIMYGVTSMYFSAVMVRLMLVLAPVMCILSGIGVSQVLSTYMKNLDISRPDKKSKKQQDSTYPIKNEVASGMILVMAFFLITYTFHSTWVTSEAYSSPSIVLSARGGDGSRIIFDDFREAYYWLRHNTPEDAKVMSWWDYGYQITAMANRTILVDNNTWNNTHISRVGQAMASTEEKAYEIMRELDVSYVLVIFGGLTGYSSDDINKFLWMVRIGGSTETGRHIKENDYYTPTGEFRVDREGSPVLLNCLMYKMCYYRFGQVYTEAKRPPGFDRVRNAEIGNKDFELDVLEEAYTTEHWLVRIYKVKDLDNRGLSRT
UniProt P47876: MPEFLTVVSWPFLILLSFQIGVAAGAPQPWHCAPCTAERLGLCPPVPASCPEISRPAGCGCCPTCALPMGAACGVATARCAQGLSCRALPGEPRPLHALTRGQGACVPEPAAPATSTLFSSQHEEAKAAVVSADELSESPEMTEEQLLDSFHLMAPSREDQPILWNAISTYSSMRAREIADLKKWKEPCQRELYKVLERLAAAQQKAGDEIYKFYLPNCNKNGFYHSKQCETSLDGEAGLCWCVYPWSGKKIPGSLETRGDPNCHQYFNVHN
UniProt P49117: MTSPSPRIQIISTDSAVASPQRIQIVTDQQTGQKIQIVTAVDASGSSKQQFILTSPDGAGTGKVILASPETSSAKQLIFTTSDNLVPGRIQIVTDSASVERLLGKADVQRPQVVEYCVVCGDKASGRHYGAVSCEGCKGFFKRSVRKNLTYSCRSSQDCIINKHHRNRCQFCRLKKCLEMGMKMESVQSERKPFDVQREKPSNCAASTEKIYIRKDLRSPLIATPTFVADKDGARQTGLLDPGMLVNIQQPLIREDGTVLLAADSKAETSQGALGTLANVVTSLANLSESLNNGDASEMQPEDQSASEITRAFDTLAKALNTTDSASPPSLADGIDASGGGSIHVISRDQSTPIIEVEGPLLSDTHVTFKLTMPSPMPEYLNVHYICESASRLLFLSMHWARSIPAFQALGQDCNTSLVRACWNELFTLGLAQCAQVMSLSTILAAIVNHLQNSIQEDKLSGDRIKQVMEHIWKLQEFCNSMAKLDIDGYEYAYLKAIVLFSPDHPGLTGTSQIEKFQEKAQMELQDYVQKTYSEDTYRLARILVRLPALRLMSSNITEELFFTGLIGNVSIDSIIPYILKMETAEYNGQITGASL
UniProt P48024, whole entry: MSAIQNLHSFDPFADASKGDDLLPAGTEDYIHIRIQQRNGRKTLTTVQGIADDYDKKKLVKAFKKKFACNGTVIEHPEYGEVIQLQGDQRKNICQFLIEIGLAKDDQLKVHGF
UniProt P50096, whole entry: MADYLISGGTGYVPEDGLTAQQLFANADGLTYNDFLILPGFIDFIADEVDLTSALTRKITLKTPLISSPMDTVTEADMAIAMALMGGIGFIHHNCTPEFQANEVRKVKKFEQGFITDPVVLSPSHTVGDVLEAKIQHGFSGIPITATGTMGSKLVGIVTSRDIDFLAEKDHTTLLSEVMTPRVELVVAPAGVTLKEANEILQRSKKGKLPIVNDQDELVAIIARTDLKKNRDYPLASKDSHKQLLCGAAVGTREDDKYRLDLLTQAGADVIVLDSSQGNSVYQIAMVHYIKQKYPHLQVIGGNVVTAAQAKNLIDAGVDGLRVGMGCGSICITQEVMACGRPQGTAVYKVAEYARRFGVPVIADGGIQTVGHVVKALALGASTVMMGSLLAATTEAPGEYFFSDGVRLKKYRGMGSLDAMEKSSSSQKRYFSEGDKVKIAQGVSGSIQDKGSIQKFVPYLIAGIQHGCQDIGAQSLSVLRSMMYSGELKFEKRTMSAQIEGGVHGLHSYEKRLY
UniProt P43006, whole entry: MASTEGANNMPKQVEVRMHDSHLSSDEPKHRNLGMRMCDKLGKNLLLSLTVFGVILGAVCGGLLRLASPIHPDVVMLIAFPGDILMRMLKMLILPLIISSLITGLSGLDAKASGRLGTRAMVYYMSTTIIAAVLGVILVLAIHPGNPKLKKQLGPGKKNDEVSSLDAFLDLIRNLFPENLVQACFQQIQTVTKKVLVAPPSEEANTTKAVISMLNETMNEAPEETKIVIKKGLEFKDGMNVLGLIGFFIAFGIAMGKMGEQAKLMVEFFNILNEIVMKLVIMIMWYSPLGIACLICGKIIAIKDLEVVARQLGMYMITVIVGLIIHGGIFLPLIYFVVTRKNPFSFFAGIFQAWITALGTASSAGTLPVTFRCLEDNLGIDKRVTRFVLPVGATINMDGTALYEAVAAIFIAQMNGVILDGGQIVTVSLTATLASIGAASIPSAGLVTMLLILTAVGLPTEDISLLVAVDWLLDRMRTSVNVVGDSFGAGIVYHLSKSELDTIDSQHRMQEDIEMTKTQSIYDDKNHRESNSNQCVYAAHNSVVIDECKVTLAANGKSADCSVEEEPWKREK
UniProt P36916, whole entry: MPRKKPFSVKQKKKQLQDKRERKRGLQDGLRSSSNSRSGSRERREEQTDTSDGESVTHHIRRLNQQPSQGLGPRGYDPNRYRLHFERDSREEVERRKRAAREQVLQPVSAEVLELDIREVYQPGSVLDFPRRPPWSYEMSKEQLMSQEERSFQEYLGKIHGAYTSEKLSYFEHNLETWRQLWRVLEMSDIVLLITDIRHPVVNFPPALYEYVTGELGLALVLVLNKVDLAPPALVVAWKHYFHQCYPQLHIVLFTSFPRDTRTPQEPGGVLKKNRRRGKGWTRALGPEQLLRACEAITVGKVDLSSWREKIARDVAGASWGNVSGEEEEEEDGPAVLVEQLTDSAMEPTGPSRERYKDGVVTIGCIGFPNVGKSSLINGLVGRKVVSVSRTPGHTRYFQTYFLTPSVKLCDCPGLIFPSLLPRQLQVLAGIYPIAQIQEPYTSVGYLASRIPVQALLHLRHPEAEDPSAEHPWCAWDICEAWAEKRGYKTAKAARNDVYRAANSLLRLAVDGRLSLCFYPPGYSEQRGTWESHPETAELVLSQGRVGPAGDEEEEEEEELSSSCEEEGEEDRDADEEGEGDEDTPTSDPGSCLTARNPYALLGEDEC
UniProt P52912: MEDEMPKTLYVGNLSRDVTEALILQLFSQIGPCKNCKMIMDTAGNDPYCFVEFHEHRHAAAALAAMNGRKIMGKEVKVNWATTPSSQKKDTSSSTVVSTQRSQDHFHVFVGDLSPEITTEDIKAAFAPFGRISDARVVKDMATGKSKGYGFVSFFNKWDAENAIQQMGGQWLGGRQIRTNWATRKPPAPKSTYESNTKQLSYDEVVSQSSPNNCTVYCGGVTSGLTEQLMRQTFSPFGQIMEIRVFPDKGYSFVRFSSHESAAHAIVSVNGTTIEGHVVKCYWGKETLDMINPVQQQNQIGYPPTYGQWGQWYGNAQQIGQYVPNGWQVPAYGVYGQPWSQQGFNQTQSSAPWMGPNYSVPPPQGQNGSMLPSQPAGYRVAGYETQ

Compound: CN[C@@H]1C[C@H]2O[C@@](C)([C@@H]1OC)n1c3ccccc3c3c4c(c5c6ccccc6n2c5c31)C(=O)NC4 [staurosporine]
Assay: log2 fold change of tryptic peptide abundance, ligand vs vehicle (limited proteolysis) (log2 ratio); higher = more trypsin-susceptible (destabilized)
Conditions: ligand concentration: 20 uM; sample: mouse liver crude lysate; replicate design: treated separately

**Q.** With “UniProt P49769 (peptide sequence: LDNPEPISNGRPQSNSR, peptide start residue: 44)” as the target, how does the log2 fold change read?
**A.** -0.191

**Q.** For “UniProt P42227 (peptide sequence: RVQDLEQK, peptide start residue: 154)”, which log2 fold change is on record?
**A.** -0.718

**Q.** Which log2 fold change does the source give for “UniProt P35991 (peptide sequence: NCLVNDQGVVK, peptide start residue: 526)” here?
**A.** 0.606

**Q.** Which log2 fold change does the source give for “UniProt P39038 (peptide sequence: AVDYELNR, peptide start residue: 456)” here?
**A.** -0.413

**Q.** With “UniProt P46978 (peptide sequence: FGQVYTEAK, peptide start residue: 647)” as the target, how does the log2 fold change read?
**A.** -0.12

**Q.** With “UniProt P47876 (peptide sequence: WKEPCQR, peptide start residue: 185)” as the target, how does the log2 fold change read?
**A.** -0.147

**Q.** With “UniProt P49117 (peptide sequence: HYGAVSCEGCK, peptide start residue: 128)” as the target, how does the log2 fold change read?
**A.** 0.413

**Q.** With “UniProt P48024 (peptide sequence: TLTTVQGIADDYDKK, peptide start residue: 43)” as the target, how does the log2 fold change read?
**A.** 0.0613

**Q.** With “UniProt P50096 (peptide sequence: GMGSLDAMEK, peptide start residue: 413)” as the target, how does the log2 fold change read?
**A.** -0.261

**Q.** With “UniProt P43006 (peptide sequence: SADCSVEEEPWKR, peptide start residue: 558)” as the target, how does the log2 fold change read?
**A.** -0.206

**Q.** Which log2 fold change does the source give for “UniProt P36916 (peptide sequence: EQLMSQEER, peptide start residue: 142)” here?
**A.** 0.133

**Q.** For “UniProt P52912 (peptide sequence: TNWATRKPPAPK, peptide start residue: 187)”, which log2 fold change is on record?
**A.** -0.462
